Assay results as given in patent US20260240158A1, “MICROBIOCIDAL THIAZOLE DERIVATIVES” (SYNGENTA CROP PROTECTION AG, priority 2019, published 2026).
Some results were stated once for a whole list of compounds, not compound by compound.

Assays:
[1] = system: Puccinia recondita f. sp. tritici; assay: Puccinia recondita f. sp. tritici / wheat / leaf disc preventative (brown rust); format: in vivo; details: 200 ppm, 7-9 days after application, vs untreated control
[2] = system: Monographella nivalis (Microdochium nivale); assay: Monographella nivalis (Microdochium nivale) / liquid culture (foot rot cereals); format: cell-based; details: "at ppm" (rate not given), growth inhibition photometrically 4-5 days after application, vs untreated control
[3] = system: Mycosphaerella arachidis (Cercospora arachidicola); assay: Mycosphaerella arachidis (Cercospora arachidicola) / liquid culture (early leaf spot); format: cell-based; details: 20 ppm, growth inhibition photometrically 4-5 days after application, vs untreated control
Sclerotinia sclerotiorum = Sclerotinia sclerotiorum / liquid culture (cottony rot); details: 20 ppm, growth inhibition photometrically 3-4 days after application, vs untreated control
[4] = system: Botryotinia fuckeliana (Botrytis cinerea); assay: Botryotinia fuckeliana (Botrytis cinerea) / liquid culture (gray mould); format: cell-based; details: 20 ppm, growth inhibition photometrically 3-4 days after application, vs untreated control
[5] = system: Glomerella lagenarium (Colletotrichum lagenarium); assay: Glomerella lagenarium (Colletotrichum lagenarium) / liquid culture (anthracnose); format: cell-based; details: "at ppm" (rate not given), growth inhibition photometrically 3-4 days after application, vs untreated control

Cc1sc(Nc2cnsc2)nc1C(=O)NC(C)c1ccccc1 (stereo not drawn) [Compound P4, 2-(isothiazol-4-ylamino)-5-methyl-N-(1-phenylethyl) thiazole-4-carboxamide]
at least 80%: control of Puccinia recondita f. sp. tritici [1] | control of Monographella nivalis [2] | control of Mycosphaerella arachidis [3] | control of Sclerotinia sclerotiorum (Sclerotinia sclerotiorum) | control of Botryotinia fuckeliana [4] | control of Glomerella lagenarium [5]

COCC(=O)N(c1cnsc1)c1nc(C(=O)NC2CCC23CCCC3)c(C)s1 (stereo not drawn) [Compound P8, 2-isothiazol-4-yl-(2-methoxyacetyl) amino-5-methyl-N-spiro 3.4 octan-3-yl-thiazole-4-carboxamide]
at least 80%: control of Puccinia recondita f. sp. tritici [1] | control of Monographella nivalis [2]

Cc1sc(Nc2cnsc2)nc1C(=O)NCC(C)(C)C [Compound P2, N-(2,2-dimethylpropyl)-2-(isothiazol-4-ylamino)-5-methyl-thiazole-4-carboxamide]
at least 80%: control of Monographella nivalis [2] | control of Mycosphaerella arachidis [3] | control of Glomerella lagenarium [5]

Cc1sc(N(C#N)c2cnsc2)nc1C(=O)NC1CCC12CCCC2 (stereo not drawn) [Compound P9, 2-cyano(isothiazol-4-yl)amino-5-methyl-N-spiro 3.4 octan-3-yl-thiazole-4-carboxamide]
at least 80%: control of Monographella nivalis [2] | control of Glomerella lagenarium [5]

Cc1sc(Nc2cnsc2)nc1C(=O)NC1CCC12CCCC2 (stereo not drawn) [Compound P5, 2-(isothiazol-4-ylamino)-5-methyl-N-spiro 3.4 octan-3-yl-thiazole-4-carboxamide]
at least 80%: control of Puccinia recondita f. sp. tritici [1] | control of Monographella nivalis [2] | control of Mycosphaerella arachidis [3] | control of Sclerotinia sclerotiorum (Sclerotinia sclerotiorum) | control of Botryotinia fuckeliana [4] | control of Glomerella lagenarium [5]

Cc1sc(Nc2cnsc2)nc1C(=O)NCCC(C)C [Compound P3, N-isopentyl-2-(isothiazol-4-ylamino)-5-methyl-thiazole-4-carboxamide]
at least 80%: control of Puccinia recondita f. sp. tritici [1] | control of Monographella nivalis [2] | control of Mycosphaerella arachidis [3] | control of Glomerella lagenarium [5]

CCCCNC(=O)c1nc(Nc2cnsc2)sc1C [Compound P1, N-butyl-2-(isothiazol-4-ylamino)-5-methyl-thiazole-4-carboxamide]
at least 80%: control of Puccinia recondita f. sp. tritici [1] | control of Monographella nivalis [2] | control of Mycosphaerella arachidis [3] | control of Glomerella lagenarium [5]
